Laboratory results taken from paper PMC12882329.
Results are given in words; binding and its absence hold for the method and conditions named. Binding seen in cells or lysates may run through a third protein.

The chains behind the UniProt entries cited, without tags or fusion partners.
UniProt P08103: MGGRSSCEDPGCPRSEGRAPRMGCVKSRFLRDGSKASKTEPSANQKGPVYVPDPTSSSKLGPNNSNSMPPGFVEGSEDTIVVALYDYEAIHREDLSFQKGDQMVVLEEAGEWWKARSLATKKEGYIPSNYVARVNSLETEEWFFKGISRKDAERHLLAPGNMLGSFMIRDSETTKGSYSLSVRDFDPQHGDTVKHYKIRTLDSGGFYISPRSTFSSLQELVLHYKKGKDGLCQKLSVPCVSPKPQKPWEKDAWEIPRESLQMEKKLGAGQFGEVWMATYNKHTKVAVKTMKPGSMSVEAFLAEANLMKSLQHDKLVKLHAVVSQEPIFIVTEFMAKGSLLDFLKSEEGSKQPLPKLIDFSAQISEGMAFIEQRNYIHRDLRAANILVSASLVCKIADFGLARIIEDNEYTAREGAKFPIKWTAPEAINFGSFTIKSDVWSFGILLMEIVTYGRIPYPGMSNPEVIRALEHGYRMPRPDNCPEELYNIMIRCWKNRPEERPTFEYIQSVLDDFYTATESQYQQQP
UniProt P15105: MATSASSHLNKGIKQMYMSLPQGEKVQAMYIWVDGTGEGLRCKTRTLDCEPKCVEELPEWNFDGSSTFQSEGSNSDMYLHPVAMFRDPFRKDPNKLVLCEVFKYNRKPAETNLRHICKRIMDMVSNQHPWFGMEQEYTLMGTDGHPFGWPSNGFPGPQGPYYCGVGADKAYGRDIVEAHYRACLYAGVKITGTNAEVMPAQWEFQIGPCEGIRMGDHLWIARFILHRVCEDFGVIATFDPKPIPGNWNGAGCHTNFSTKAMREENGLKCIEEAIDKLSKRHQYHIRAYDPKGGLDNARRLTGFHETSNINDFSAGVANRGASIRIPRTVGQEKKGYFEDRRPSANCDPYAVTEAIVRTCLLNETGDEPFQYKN

Molecular target: hematopoietic cell kinase (HCK) (UniProt P08103)
Test: co-IP; cells lysed with IP lysis on ice for 30 min; IP antibody incubated with the lysate overnight at 4°C; streptavidin magnetic beads 4 h at 4°C; washed four times; WB; cells and IP antibody not named

binding: no binding
Substance: glutamine synthetase (GS) (from UniProt P15105 1-373) (enzyme)
